Source: patent US20020143164A1, “Ras activator nucleic acid molecules, polypeptides and methods of use” (priority 1999, published 2002)
Results are given in words; binding and its absence hold for the method and conditions named. In cells and extracts the contact can be indirect. Some binding calls cover weakened binding; strength is not graded here. Where a sequence is shown, tags or fusion partners need not be part of it.

Biological target: T1, Flag-tagged full-length GRF4 (human) (UniProt Q9Y4G8)
T1 sequence: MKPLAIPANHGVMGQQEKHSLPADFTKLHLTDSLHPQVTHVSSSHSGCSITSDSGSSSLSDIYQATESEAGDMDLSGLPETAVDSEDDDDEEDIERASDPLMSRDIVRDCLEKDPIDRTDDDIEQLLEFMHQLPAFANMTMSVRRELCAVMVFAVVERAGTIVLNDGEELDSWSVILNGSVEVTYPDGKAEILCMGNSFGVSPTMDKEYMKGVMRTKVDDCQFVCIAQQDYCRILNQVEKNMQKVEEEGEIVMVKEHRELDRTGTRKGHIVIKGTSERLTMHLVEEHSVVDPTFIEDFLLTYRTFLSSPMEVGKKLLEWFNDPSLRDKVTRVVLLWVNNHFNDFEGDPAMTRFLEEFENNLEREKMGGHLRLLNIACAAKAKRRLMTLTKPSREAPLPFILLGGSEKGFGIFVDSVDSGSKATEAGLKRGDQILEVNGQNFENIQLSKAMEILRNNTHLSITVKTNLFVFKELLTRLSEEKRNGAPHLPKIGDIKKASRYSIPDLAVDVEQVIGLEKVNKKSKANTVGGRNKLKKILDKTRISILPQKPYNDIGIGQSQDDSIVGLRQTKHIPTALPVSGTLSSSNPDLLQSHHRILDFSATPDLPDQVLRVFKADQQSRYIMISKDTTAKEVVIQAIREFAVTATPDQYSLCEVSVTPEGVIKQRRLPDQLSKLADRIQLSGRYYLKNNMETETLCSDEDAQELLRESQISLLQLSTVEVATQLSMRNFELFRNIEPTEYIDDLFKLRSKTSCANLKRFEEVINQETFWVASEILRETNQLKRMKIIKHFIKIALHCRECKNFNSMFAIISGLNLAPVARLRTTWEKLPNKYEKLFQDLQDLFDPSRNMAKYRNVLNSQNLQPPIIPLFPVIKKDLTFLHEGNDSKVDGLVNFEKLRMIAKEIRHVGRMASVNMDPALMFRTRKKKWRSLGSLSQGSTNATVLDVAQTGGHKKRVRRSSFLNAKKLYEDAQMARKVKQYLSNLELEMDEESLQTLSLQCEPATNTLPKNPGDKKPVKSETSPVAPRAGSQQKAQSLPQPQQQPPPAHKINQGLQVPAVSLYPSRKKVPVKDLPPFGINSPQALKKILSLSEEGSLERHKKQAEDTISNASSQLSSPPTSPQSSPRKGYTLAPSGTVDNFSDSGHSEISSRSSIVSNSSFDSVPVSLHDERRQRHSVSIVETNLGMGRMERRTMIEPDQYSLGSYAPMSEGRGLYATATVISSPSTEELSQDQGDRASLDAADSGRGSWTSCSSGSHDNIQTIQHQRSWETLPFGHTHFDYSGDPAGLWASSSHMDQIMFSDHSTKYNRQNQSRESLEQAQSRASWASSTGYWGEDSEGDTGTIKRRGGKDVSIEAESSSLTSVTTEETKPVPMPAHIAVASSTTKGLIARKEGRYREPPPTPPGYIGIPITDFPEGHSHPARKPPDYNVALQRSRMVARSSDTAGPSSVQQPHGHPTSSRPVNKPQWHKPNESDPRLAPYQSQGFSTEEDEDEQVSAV
Experiment: pull-down with biotinylated peptide on streptavidin agarose beads

binding: binds
B1: Biotinylated peptide of the last 15 amino acids of GRF4, containing the PDZ-binding motif SAV* (peptide)
peptide: GFSTEEDEDEQVSAV
modifications: biotinylated (position not given)
